Test results as given in PMC7565722.
No constants are given. Whether binding was seen depends on the method and setting. In cells and extracts the contact can be indirect. Some results given as binding are weak or reduced against the parent protein; the word gives no strength.

Chains of the proteins cited; added tags and fusions are not shown.
UniProt O60260: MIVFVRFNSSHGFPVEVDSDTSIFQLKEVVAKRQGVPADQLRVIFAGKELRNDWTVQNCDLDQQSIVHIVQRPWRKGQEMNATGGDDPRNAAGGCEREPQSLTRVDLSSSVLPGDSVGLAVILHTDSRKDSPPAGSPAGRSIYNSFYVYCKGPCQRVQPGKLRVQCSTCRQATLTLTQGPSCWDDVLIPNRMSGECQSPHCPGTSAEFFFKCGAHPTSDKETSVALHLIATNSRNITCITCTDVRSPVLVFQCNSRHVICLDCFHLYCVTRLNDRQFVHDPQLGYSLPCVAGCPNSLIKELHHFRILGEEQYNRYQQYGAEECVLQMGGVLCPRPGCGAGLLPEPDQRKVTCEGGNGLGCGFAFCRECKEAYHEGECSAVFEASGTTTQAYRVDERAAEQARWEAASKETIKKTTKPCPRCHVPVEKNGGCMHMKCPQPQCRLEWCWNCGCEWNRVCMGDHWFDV
UniProt Q07812: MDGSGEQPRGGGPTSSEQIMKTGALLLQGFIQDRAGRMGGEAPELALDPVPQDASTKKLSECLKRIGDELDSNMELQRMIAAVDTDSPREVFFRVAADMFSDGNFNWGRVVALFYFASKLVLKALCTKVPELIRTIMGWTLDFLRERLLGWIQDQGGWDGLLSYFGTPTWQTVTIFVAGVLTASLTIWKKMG

Target: Parkin (human (endogenous in HCT116)) (UniProt O60260)
Experiment: co-IP; lysates of HCT116 shMock and shRomo1 stable cells, and of HCT116 cells transfected with Flag-Romo1; immunoprecipitated with IgG or Parkin antibody overnight at 4 °C, protein G PLUS-Agarose beads 1 h at 4 °C; immunoblot for Bax

binding: binds
Substance: BCL-2-associated X protein (Bax) (from UniProt Q07812 1-192)
